According to patent CN107840889A:
These are yes or no findings as the source states them, for the method shown. Some binding calls cover weakened binding; strength is not graded here. Where a sequence is shown, tags or fusion partners need not be part of it.

Target: T1, CD123-his-biotin抗原 (Homo sapiens (Human)) (UniProt P26951)
T1 sequence (chain, biotin label (site not stated)): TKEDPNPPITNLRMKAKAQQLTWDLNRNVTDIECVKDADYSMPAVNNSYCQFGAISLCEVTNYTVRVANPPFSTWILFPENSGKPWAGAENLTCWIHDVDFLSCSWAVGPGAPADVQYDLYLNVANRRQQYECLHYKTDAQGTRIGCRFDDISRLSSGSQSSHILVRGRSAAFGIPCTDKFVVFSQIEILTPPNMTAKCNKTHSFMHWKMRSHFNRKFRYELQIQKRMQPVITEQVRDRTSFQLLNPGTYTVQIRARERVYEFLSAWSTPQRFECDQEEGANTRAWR
Test: BLI (Octet RED96), CD123-Biotin on AR2G sensor

binding: binds
B1: 8A7 (scFv, V domains shown)
VH: QVQLQQPGAELVRPGASVKLSCKASGYTFTSYWMNWVKQRPDQGLEWIGRIDPYDSETHYNQKFKDKAILTVDKSSSTAYMQLSSLTSEDSAVYYCARGNWDDYWGQGTTLTVSS
VL: DVQITQSPSYLAASPGETITINCRASKSISKDLAWYQEKPGKTNKLLIYSGSTLQSGIPSRFSGSGSGTDFTLTISSLEPEDFAMYYCQQTNRYPYTFGGGTKLEIK
